We go through two molecules from publication PMC6205631, “Topological in vitro loading of the budding yeast cohesin ring onto DNA” (Life Science Alliance, 2018).

For test [1], the target named is T1, Smc1 (E1158Q) (budding yeast) (UniProt P32908).
T1 sequence: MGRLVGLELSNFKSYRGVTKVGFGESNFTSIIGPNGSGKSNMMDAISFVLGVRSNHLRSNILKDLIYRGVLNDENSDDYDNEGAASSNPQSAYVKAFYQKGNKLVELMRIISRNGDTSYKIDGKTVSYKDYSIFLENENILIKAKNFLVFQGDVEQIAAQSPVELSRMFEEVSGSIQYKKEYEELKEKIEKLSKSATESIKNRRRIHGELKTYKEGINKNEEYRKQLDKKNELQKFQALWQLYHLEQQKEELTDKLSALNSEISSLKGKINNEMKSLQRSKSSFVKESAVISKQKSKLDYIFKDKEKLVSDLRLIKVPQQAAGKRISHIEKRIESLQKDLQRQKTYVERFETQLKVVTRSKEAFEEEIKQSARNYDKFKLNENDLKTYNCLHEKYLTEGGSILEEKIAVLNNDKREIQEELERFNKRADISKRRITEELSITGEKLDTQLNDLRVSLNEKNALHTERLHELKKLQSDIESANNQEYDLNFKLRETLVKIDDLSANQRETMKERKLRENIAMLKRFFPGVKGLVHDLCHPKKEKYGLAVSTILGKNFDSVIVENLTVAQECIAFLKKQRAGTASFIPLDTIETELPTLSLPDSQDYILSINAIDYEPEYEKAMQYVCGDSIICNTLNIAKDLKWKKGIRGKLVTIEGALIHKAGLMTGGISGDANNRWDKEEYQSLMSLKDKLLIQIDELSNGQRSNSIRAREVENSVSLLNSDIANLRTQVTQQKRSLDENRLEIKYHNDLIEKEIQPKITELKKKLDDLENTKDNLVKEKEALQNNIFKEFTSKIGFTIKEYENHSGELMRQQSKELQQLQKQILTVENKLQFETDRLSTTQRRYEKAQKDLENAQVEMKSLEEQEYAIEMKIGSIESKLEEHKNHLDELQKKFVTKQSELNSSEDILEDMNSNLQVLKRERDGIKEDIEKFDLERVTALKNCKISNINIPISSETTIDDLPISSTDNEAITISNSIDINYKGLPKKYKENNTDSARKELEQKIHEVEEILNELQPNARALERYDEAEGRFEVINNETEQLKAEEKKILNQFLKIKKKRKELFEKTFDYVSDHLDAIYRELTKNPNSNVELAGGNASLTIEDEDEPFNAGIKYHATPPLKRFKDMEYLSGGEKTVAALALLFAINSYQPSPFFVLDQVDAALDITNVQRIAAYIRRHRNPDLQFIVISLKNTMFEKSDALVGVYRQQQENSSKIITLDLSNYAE
In words: co-purification (IgG affinity, heparin, size exclusion chromatography); four subunits co-overexpressed in budding yeast; lysate on IgG agarose by the protein A tags on Scc1, 300 mM NaCl washes, PreScission protease elution, HiTrap Heparin, Superose 6 in 150 mM NaCl; fractions analysed by SDS-PAGE, Coomassie Blue and immunoblotting. (In general: In gel filtration, larger molecules generally elute earlier.)

The next test concerns the target T2, Scc2 (budding yeast) (UniProt Q04002).
T2 sequence: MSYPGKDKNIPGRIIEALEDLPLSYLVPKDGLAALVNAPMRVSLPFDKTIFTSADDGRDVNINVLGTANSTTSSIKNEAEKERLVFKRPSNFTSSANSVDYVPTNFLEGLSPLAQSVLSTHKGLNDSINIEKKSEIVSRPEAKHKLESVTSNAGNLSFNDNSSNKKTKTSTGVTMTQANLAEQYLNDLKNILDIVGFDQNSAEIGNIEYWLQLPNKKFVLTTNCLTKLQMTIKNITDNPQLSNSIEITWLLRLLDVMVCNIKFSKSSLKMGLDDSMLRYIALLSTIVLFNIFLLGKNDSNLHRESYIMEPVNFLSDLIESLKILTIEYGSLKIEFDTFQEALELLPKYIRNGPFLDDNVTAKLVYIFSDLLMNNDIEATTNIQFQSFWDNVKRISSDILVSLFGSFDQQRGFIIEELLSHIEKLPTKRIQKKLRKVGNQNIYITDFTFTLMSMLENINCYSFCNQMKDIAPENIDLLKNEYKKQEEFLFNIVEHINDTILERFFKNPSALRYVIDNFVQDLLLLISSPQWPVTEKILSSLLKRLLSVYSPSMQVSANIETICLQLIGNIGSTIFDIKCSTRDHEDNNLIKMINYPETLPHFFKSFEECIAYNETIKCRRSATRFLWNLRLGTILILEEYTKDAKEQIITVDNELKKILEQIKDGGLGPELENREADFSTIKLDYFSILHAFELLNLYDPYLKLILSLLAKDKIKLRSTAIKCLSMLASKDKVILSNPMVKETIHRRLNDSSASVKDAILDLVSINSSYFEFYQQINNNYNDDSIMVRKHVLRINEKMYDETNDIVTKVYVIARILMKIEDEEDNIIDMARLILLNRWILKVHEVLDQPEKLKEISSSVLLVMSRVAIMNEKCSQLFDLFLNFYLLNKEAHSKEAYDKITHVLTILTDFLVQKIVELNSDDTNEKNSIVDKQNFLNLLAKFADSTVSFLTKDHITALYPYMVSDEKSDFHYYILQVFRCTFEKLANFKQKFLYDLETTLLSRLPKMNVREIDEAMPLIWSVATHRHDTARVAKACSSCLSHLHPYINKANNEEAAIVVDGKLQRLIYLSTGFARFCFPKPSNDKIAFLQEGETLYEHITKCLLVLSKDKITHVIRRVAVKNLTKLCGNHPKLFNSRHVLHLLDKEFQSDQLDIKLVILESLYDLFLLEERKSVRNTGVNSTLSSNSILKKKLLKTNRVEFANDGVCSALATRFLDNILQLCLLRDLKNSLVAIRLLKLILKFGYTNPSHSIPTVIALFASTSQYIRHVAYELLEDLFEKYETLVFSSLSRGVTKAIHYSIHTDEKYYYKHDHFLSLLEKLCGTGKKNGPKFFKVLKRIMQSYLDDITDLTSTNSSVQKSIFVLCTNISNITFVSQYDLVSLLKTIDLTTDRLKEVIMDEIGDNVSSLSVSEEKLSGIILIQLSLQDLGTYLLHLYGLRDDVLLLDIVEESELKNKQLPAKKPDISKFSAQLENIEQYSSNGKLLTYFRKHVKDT
Briefly: co-purification (IgG affinity, heparin, size exclusion chromatography); Scc2 and Scc4 co-overexpressed in budding yeast; lysate on IgG agarose by the protein A tags on Scc2, 300 mM NaCl washes, 3C protease elution, HiTrap Heparin, Superdex 200 in buffer R; SDS-PAGE, Coomassie Blue and immunoblotting.

No constants are given. Whether binding was seen depends on the method and setting. Some binding calls cover weakened binding; strength is not graded here.

B1: Smc3 (E1155Q) (protein, UniProt P47037 1-1230)
chain: MYIKRVIIKGFKTYRNETIIDNFSPHQNVIIGSNGSGKSNFFAAIRFVLSDDYSNLKREERQGLIHQGSGGSVMSASVEIVFHDPDHSMILPSGVLSRGDDEVTIRRTVGLKKDDYQLNDRNVTKGDIVRMLETAGFSMNNPYNIVPQGKIVALTNAKDKERLQLLEDVVGAKSFEVKLKASLKKMEETEQKKIQINKEMGELNSKLSEMEQERKELEKYNELERNRKIYQFTLYDRELNEVINQMERLDGDYNNTVYSSEQYIQELDKREDMIDQVSKKLSSIEASLKIKNATDLQQAKLRESEISQKLTNVNVKIKDVQQQIESNEEQRNLDSATLKEIKSIIEQRKQKLSKILPRYQELTKEEAMYKLQLASLQQKQRDLILKKGEYARFKSKDERDTWIHSEIEELKSSIQNLNELESQLQMDRTSLRKQYSAIDEEIEELIDSINGPDTKGQLEDFDSELIHLKQKLSESLDTRKELWRKEQKLQTVLETLLSDVNQNQRNVNETMSRSLANGIINVKEITEKLKISPESVFGTLGELIKVNDKYKTCAEVIGGNSLFHIVVDTEETATLIMNELYRMKGGRVTFIPLNRLSLDSDVKFPSNTTTQIQFTPLIKKIKYEPRFEKAVKHVFGKTIVVKDLGQGLKLAKKHKLNAITLDGDRADKRGVLTGGYLDQHKRTRLESLKNLNESRSQHKKILEELDFVRNELNDIDTKIDQVNGNIRKVSNDRESVLTNIEVYRTSLNTKKNEKLILEESLNAIILKLEKLNTNRTFAQEKLNTFENDLLQEFDSELSKEEKERLESLTKEISAAHNKLNITSDALEGITTTIDSLNAELESKLIPQENDLESKMSEVGDAFIFGLQDELKELQLEKESVEKQHENAVLELGTVQREIESLIAEETNNKKLLEKANNQQRLLLKKLDNFQKSVEKTMIKKTTLVTRREELQQRIREIGLLPEDALVNDFSDITSDQLLQRLNDMNTEISGLKNVNKRAFENFKKFNERRKDLAERASELDESKDSIQDLIVKLKQQKVNAVDSTFQKVSENFEAVFERLVPRGTAKLIIHRKNDNANDHDESIDVDMDAESNESQNGKDSEIMYTGVSISVSFNSKQNEQLHVEQLSGGQKTVCAIALILAIQMVDPASFYLFDQIDAALDKQYRTAVATLLKELSKNAQFICTTFRTDMLQVADKFFRVKYENKISTVIEVNREEAIGFIRGSNKFAEV
B1: the binding result in test [1] was “binds”.

B2: Scc4 (protein, UniProt P40090 1-624)
chain: MENLGDKLSISQVYHLAQEYRDHAYSIANKIGSEEGLKQYYGLMNMSIQMFQLLKTKCTLSVLEDSKVTFEMVELLIQETYNFDLAELYISSLKERLQTHQSDTDLVEEIMRCEFLLLHDLPLMRDSKFHYKIALRNCNELVQYMVNLQDELYQNWASVFQYVGVMLCIKLKQHRRVKTSFHGLLSQCREKSQWKWFLNLCYVNYLLNERFPIPEDALQELRSTELHTVGPELYAWKLALEMVIQLCKDGNITDHLNEFKNFFDTNKQSLVTNEGKGCVIKIMPRIALKVELPMIFHYKELKNILLLLQSVSYIVNCYDEKGNFSRKFLPKVYSTTQKLIKNIAAGGVSMNELDSRIQTYKSILEFCEFYKVWEQTLLKGAVVTTESPKLGPSPGYVRLLQAMKVQFEGGGAVEEYTRLAQSGGTSSEVKMISLLNCYTVQAARVSRCSGDKQGELVEQCNKVWLQVEKLLQETDLQFNPIWECTVTILWLFSHFEPFSWNPLPCSDKQRAEYVSKLREFYSSNKFVAGEAVADNRFKLKKALLLQILVNYLGGRMLEHDLGEIYAISAKCFDMCRQQGGMRKVQYVIGIWHLMNCTVAMRGKDVALTNAKLEALVKQITSVKQ
Regarding B2, in the test with Scc2 (budding yeast), the binding result is given as “binds”.
